Assay results: publication PMC4286236
Results are given in words; binding and its absence hold for the method and conditions named. Binding seen in cells or lysates may run through a third protein. Some binding calls cover weakened binding; strength is not graded here.

Assays:
[1] = biological target: Danio rerio PlxnA3 extracellular + TM + JM (amino acids 1-1314) M1281L, BRET^2 constructs (Danio rerio) (UniProt B0S5N4); assay: FRET or BRET; BRET^2 in COS-7 cells co-transfected with PlxnA3(1-1314)-RLuc and PlxnA3(1-1314)-GFP^2; DeepBlueC; normalised energy transfer efficiency ratio; without Nrp2a and SEMA3F
[2] = biological target: Danio rerio PlxnA3 extracellular + TM + JM (amino acids 1-1314) M1281L, BRET^2 constructs (Danio rerio) (UniProt B0S5N4); assay: FRET or BRET; BRET^2 in COS-7 cells co-transfected with PlxnA3(1-1314)-RLuc, PlxnA3(1-1314)-GFP^2 and full-length FLAG-tagged Nrp2a, treated with AP-SEMA3F expression media for a minimum of 1.5 hours at 37 C, 5% CO2
[3] = biological target: Danio rerio PlxnA3 extracellular + TM + JM (amino acids 1-1314) M1281F, BRET^2 constructs (Danio rerio) (UniProt B0S5N4); assay: as above

| Binder | binding [1] | binding [2] | binding [3] |
| --- | --- | --- | --- |
| Danio rerio PlxnA3 extracellular + TM + JM (amino acids 1-1314) M1281L, BRET^2 constructs (receptor, UniProt B0S5N4 21-1314) FPMILSERPEVTGSFKVKDTSLTHLTVHRKTGEVFVGAINRVYKLSANLTETRSHQTGPVEDNAKCYPPPSVRACTQKLESTDNVNKLLLVDYAGNRLVACGSIWQGVCQFLRLEDLFKLGEPHHRKEHYLSGAKESDGMAGVVVGDDDGDLKKKKKGGSRLFIGAAIDGKSEYFPTLSSRKLVADEESVNMFSLVYQDEFVSSQIKIPSDTLSQYPAFDIYYVYGFSSRTYIYFLTLQLDTQLTQVDVTGEKFFTSKIVRMCSNDTEFYSYVEFPLGCTKDGVEYRLVQAAYKHRPGKILAQALGLSEDEDVLFVIFSQGQKNRANPPRETVLCLFTLHQINLAMRERIKSCYRGEGKLSLPWLLNKELPCINTPKQIGDDFCGLVLNQPLGGLMVIEGIPLFDDRTDGMASVAAYTYGDHSVVFVGTRSGHLKKIRVNGVPPPSENALLYETVTVVEGSPILRDMVFSPDYQYIYLLSDKQVSRLPVESCSQYSSCKTCLGSGDPHCGWCVLHNKCSRKEACEKWAEPLHFSTELKQCVDITVTPDNMSVTSVSTQLSVKVANVPNLSAGVTCVFEELTESPGEVLAEGQILCMSPSLRDVPSVTQGYGDKRVVKLSLKSKETGLKFITTDFVFYNCSVLQSCSSCVSSPFPCNWCKYRHICTNNVAECSFQEGRVSSAEGCPQILPSSDILVPAGIVRPITLRARNLPQPQSGQKNYECVFNIQGKVQRIPAVRFNSSCIQCQNTSYWYEGNEMGDLPVDFSIVWDGDFPIDKPSSMRALLYKCEAQRDSCGLCLKADSTFECGWCLADKKCLLKQHCPSAEHNWMHQGRRNIRCSHPRITKIRPLTGPKEGGTRVTIEGENLGLQVREITHVRVAGVRCNPAAAEYISAERIVCDMEESLMSSPPGGPVELCIGDCSAEYRTQSTQTYSFVMPSFSRVRPEKGPVSGGTRLTISGRHLDAGSAVTVFLAQEECLFVRRTVREIVCVTPPSASGSGPSSVKLFIDKAEITSDTRYIYTEDPNISTIEPNWSIINGSTSLTVTGTNLLTIQEPKVRAKYGGVETTNISSLVNDSVMTCLAPGIIYTKREAPESGVHPDEFGFILDHVSALLILNGTPFTYYPNPTFEPLGNAGILEVKPGSPIILKGKNLIPPAPGNIRLNYSVTIGETPCLLTVSESQLLCDSPDLTGEQRVMILVGGLEYSPGMLHIYSDSTLTLPAIIGIGAGGGVLLIAIIAVLIAYKRKTRDADRTLKRLQLQLDNLESRVALECKEAFAELQTDIQELTNDMDGVK | binds | binds | – |
| Danio rerio PlxnA3 extracellular + TM + JM (amino acids 1-1314) M1281F, BRET^2 constructs (receptor, UniProt B0S5N4 21-1314) FPMILSERPEVTGSFKVKDTSLTHLTVHRKTGEVFVGAINRVYKLSANLTETRSHQTGPVEDNAKCYPPPSVRACTQKLESTDNVNKLLLVDYAGNRLVACGSIWQGVCQFLRLEDLFKLGEPHHRKEHYLSGAKESDGMAGVVVGDDDGDLKKKKKGGSRLFIGAAIDGKSEYFPTLSSRKLVADEESVNMFSLVYQDEFVSSQIKIPSDTLSQYPAFDIYYVYGFSSRTYIYFLTLQLDTQLTQVDVTGEKFFTSKIVRMCSNDTEFYSYVEFPLGCTKDGVEYRLVQAAYKHRPGKILAQALGLSEDEDVLFVIFSQGQKNRANPPRETVLCLFTLHQINLAMRERIKSCYRGEGKLSLPWLLNKELPCINTPKQIGDDFCGLVLNQPLGGLMVIEGIPLFDDRTDGMASVAAYTYGDHSVVFVGTRSGHLKKIRVNGVPPPSENALLYETVTVVEGSPILRDMVFSPDYQYIYLLSDKQVSRLPVESCSQYSSCKTCLGSGDPHCGWCVLHNKCSRKEACEKWAEPLHFSTELKQCVDITVTPDNMSVTSVSTQLSVKVANVPNLSAGVTCVFEELTESPGEVLAEGQILCMSPSLRDVPSVTQGYGDKRVVKLSLKSKETGLKFITTDFVFYNCSVLQSCSSCVSSPFPCNWCKYRHICTNNVAECSFQEGRVSSAEGCPQILPSSDILVPAGIVRPITLRARNLPQPQSGQKNYECVFNIQGKVQRIPAVRFNSSCIQCQNTSYWYEGNEMGDLPVDFSIVWDGDFPIDKPSSMRALLYKCEAQRDSCGLCLKADSTFECGWCLADKKCLLKQHCPSAEHNWMHQGRRNIRCSHPRITKIRPLTGPKEGGTRVTIEGENLGLQVREITHVRVAGVRCNPAAAEYISAERIVCDMEESLMSSPPGGPVELCIGDCSAEYRTQSTQTYSFVMPSFSRVRPEKGPVSGGTRLTISGRHLDAGSAVTVFLAQEECLFVRRTVREIVCVTPPSASGSGPSSVKLFIDKAEITSDTRYIYTEDPNISTIEPNWSIINGSTSLTVTGTNLLTIQEPKVRAKYGGVETTNISSLVNDSVMTCLAPGIIYTKREAPESGVHPDEFGFILDHVSALLILNGTPFTYYPNPTFEPLGNAGILEVKPGSPIILKGKNLIPPAPGNIRLNYSVTIGETPCLLTVSESQLLCDSPDLTGEQRVMILVGGLEYSPGMLHIYSDSTLTLPAIIGIGAGGGVLLIAIIAVLIAYKRKTRDADRTLKRLQLQFDNLESRVALECKEAFAELQTDIQELTNDMDGVK | – | – | binds |
